Article doi:10.1101/2025.08.25.672096 (bioRxiv, 2025)
Results are given in words; binding and its absence hold for the method and conditions named. In cells and extracts the contact can be indirect. Binding calls can cover weak binding; strength is not graded here.

Protein sequences, listed by entry. Tags and fused reporters are not part of them. Lines headed by an entry give the natural chain unless they say otherwise; changes in a name come on top.
UniProt O14578: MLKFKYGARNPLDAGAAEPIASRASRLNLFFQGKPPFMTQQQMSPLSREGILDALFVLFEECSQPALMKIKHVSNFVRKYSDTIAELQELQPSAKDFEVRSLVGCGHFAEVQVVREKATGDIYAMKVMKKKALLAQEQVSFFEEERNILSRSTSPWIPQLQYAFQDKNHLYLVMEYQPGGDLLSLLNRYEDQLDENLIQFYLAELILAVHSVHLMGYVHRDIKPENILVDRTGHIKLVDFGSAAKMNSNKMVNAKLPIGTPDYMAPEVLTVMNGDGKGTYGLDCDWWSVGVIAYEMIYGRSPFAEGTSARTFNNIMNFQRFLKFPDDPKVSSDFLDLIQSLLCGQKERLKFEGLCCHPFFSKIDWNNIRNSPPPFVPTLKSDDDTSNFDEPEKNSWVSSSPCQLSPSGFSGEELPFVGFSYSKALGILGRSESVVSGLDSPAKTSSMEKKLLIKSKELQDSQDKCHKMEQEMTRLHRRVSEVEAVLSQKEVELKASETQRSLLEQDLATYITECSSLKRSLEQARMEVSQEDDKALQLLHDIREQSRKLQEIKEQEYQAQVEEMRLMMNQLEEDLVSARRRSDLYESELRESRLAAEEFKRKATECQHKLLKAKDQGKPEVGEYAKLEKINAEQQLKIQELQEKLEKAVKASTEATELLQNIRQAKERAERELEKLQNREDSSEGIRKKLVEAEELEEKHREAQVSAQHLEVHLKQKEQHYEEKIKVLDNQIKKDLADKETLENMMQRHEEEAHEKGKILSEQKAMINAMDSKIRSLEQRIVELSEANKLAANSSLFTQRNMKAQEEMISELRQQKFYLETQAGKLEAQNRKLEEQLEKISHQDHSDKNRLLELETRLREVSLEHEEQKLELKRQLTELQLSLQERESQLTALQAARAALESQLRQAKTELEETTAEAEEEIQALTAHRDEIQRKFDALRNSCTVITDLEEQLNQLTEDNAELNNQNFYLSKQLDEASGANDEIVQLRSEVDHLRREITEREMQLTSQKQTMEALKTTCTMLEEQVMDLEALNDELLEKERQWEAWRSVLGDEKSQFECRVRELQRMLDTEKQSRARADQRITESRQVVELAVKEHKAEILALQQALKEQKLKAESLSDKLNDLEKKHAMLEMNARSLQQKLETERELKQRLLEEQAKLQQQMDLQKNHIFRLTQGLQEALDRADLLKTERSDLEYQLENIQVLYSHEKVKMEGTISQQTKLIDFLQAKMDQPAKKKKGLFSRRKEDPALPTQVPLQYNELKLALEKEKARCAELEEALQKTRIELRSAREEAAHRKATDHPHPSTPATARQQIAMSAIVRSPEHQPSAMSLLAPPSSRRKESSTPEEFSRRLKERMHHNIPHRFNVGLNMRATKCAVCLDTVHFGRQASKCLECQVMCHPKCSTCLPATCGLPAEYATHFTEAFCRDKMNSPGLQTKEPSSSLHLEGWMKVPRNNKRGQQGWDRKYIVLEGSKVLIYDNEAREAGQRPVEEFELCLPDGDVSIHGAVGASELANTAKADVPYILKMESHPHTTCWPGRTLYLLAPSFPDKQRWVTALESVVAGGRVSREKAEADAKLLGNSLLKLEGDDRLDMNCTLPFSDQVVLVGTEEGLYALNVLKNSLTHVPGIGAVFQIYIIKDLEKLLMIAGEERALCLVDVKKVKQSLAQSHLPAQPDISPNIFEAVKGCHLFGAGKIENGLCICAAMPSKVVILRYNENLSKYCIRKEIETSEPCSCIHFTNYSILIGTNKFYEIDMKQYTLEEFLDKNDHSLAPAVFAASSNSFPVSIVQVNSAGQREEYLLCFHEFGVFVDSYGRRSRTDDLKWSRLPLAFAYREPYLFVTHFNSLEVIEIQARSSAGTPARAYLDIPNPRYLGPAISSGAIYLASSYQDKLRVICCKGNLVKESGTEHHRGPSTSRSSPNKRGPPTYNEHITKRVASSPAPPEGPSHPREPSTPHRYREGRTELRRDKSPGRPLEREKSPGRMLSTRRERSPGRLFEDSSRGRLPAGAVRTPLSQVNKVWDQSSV
UniProt Q96GD4: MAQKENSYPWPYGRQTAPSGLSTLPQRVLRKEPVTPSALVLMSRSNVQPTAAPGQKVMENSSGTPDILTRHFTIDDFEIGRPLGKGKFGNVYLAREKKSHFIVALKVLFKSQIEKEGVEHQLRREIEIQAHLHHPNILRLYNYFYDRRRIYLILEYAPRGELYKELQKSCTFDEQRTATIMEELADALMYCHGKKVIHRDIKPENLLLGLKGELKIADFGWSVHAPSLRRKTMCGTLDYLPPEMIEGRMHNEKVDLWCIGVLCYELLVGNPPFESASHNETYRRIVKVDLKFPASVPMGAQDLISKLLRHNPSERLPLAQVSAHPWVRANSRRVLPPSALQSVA
UniProt Q15058: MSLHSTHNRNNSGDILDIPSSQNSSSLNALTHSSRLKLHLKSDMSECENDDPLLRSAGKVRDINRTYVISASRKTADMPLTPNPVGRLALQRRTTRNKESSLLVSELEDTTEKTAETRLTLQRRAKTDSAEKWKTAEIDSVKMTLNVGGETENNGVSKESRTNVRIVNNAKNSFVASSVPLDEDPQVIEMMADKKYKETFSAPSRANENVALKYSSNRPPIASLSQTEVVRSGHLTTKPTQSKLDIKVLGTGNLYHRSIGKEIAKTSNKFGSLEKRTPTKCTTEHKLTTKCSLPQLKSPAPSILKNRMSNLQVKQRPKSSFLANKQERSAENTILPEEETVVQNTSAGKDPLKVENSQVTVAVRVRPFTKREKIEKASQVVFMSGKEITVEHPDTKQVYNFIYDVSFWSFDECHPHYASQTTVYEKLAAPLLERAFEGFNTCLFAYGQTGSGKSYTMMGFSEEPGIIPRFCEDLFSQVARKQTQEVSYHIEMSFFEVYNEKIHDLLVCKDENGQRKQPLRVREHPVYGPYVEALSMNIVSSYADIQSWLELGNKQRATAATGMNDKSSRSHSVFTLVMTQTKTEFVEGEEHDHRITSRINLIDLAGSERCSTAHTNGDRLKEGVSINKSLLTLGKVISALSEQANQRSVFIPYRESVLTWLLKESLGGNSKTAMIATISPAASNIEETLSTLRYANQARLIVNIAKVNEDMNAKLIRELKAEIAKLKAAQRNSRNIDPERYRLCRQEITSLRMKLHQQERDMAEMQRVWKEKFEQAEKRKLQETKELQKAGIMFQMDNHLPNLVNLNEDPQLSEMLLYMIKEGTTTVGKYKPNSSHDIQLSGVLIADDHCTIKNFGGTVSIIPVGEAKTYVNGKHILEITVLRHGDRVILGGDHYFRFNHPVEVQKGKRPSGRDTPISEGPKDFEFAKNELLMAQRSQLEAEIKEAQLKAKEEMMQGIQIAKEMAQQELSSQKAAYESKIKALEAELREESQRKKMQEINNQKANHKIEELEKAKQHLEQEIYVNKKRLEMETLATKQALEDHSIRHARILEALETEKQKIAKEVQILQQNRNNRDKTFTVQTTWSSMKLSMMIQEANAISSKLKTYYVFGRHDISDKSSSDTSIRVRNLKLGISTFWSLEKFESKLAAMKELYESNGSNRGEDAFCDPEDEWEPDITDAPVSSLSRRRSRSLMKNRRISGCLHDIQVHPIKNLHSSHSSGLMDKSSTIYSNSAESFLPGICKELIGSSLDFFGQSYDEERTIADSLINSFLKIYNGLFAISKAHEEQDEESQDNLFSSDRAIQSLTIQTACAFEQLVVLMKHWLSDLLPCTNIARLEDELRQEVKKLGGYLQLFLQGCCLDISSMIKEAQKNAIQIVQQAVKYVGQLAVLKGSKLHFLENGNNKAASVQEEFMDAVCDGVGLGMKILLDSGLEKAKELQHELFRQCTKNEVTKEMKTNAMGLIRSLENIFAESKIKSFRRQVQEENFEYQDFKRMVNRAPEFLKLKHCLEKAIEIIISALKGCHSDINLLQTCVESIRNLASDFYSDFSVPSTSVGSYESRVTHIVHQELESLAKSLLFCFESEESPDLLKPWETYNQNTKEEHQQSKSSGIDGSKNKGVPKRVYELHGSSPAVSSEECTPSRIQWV

B1: MKLP1/KIF23 (protein, UniProt Q02241 1-960)
chain: MKSARAKTPRKPTVKKGSQTNLKDPVGVYCRVRPLGFPDQECCIEVINNTTVQLHTPEGYRLNRNGDYKETQYSFKQVFGTHTTQKELFDVVANPLVNDLIHGKNGLLFTYGVTGSGKTHTMTGSPGEGGLLPRCLDMIFNSIGSFQAKRYVFKSNDRNSMDIQCEVDALLERQKREAMPNPKTSSSKRQVDPEFADMITVQEFCKAEEVDEDSVYGVFVSYIEIYNNYIYDLLEEVPFDPIKPKPPQSKLLREDKNHNMYVAGCTEVEVKSTEEAFEVFWRGQKKRRIANTHLNRESSRSHSVFNIKLVQAPLDADGDNVLQEKEQITISQLSLVDLAGSERTNRTRAEGNRLREAGNINQSLMTLRTCMDVLRENQMYGTNKMVPYRDSKLTHLFKNYFDGEGKVRMIVCVNPKAEDYEENLQVMRFAEVTQEVEVARPVDKAICGLTPGRRYRNQPRGPVGNEPLVTDVVLQSFPPLPSCEILDINDEQTLPRLIEALEKRHNLRQMMIDEFNKQSNAFKALLQEFDNAVLSKENHMQGKLNEKEKMISGQKLEIERLEKKNKTLEYKIEILEKTTTIYEEDKRNLQQELETQNQKLQRQFSDKRRLEARLQGMVTETTMKWEKECERRVAAKQLEMQNKLWVKDEKLKQLKAIVTEPKTEKPERPSRERDREKVTQRSVSPSPVPLSSNYIAQISNGQQLMSQPQLHRRSNSCSSISVASCISEWEQKIPTYNTPLKVTSIARRRQQEPGQSKTCIVSDRRRGMYWTEGREVVPTFRNEIEIEEDHCGRLLFQPDQNAPPIRLRHRRSRSAGDRWVDHKPASNMQTETVMQPHVPHAITVSVANEKALAKCEKYMLTHQELASDGEIETKLIKGDIYKTRGGGQSVQFTDIETLKQESPNGSRKRRSSTVAPAQPDGAESEWTDVETRCSVAVEMRAGSQLGPGYQHHAQPKRKKP

molecular target: GFP-tagged Citron kinase (CIT-K) S699D, phospho-mimetic mutant (human) (UniProt O14578); assay: co-IP

binding	Molecule
binds	Aurora B kinase (AURKB) (from UniProt Q96GD4 1-344)
binds	KIF14 (from UniProt Q15058 1-1648)
binds	B1
